This is one part of the list. These are raw signals, not scaled to a control.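 Primary screen: polymyxin B was added at a level permeabilizing Salmonella outer membranes while sparing inner membranes. DMSO wells, both with and without polymyxin B, established maximum growth. Plate-to-plate variation meant each plate was ranked on its own, and the lowest-OD600 compounds were selected as hits.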
Test system: Salmonella enterica serovar Typhimurium SL1344
Experiment: bacterial growth OD600 after 18 h with compound and polymyxin B; higher = more bacterial growth (less inhibition)
Details: 50 µM, Mueller-Hinton broth

Row | Compound | bacterial growth OD600 (polymyxin B 0.75 µg/mL) | bacterial growth OD600 (polymyxin B 1 µg/mL)
1 | Cc1ccc(F)cc1CNC(=O)C1CCCN(C2CCN(C(C)C)CC2)C1 (stereo not given) | 0.809 | –
2 | COc1ccccc1CNC(=O)CCC1(Cc2ccco2)CCC(=O)N1 (stereo not given) | 0.901 | –
3 | Cc1oc(-c2ccccc2NC(=O)CC2CCCC2)nc1CNC(=O)c1c(-c2ccccc2)noc1C | 0.87 | –
4 | Cc1cnc(SCCN2CCOCC2)nc1C1CCCN(C(=O)c2ccc3c(c2)OCO3)C1 (stereo not given) | 0.979 | –
5 | CCCOC1CCCN(c2nncc(-c3c(OC)cccc3OC)n2)C1 (stereo not given) | – | 0.711
6 | CCCCn1c(CN2CCC[C@H]2CO)cnc1S(=O)(=O)CCCC(C)C | 0.446 | –
7 | COCC(C)NC(=O)CCC1(Cc2ccc(OC)c3ccccc23)CCC(=O)N1 (stereo not given) | 0.848 | –
8 | O=C(Cn1cc(NC(=O)CCC(=O)c2ccccc2)cn1)NCC(c1ccccc1)c1ccccc1 | 0.656 | –
9 | Cc1nc(C)c(C(=O)N2CCOc3ccc(C(O)C(c4ccccc4)c4ccccc4)cc3C2)s1 (stereo not given) | 0.743 | –
10 | COCCN1C(=O)CC(CC(=O)N2CC3(C)CC2CC(C)(C)C3)(c2ccccc2OC)C1=O (stereo not given) | 0.009 | –
11 | COc1ccccc1CCc1nnc(CCC(=O)NCc2ccc(F)cc2F)o1 | 0.772 | –
12 | CC(C)CC(=O)Nc1ccnn1C1CCN(Cc2ccc(CO)o2)CC1 | – | 0.93
13 | O=C(CCC1(Cc2ccccc2)CCC(=O)N1)NCc1cnn(-c2ccccc2)n1 (stereo not given) | 0.735 | –
14 | CC(C)N1CCN(C(=O)CC(c2cccc(O)c2)c2ccccc2Cl)CC1 (stereo not given) | – | 1.02
15 | Cc1ccccc1C1CCCN(Cc2nc(CC3CC3)no2)C1 (stereo not given) | – | 0.858
16 | CSc1ccc(CNC(=O)CCCn2nnnc2CN2CCC(C)CC2)cc1 | – | 0.801
17 | O=C1O[C@@H]2CN(Cc3ccc(C#CCCO)cc3)C[C@@H]2N1C1CCCC1 | – | 0.888
18 | Cc1ccc2c(c1)CN(CCNC(=O)c1ccccc1C(F)(F)F)CC(C)O2 (stereo not given) | 0.686 | –
19 | COC(=O)C1CCN(C(=O)c2cn(Cc3cccc4ccccc34)nn2)CC1 | – | 0.814
20 | CCNC(=O)N1CCC2(CCCN(Cc3ccc(F)cc3)C2=O)C1 (stereo not given) | – | 1.12
21 | CN1CCCC(CNc2ccc(-c3nc(-c4ccccc4F)no3)cn2)C1 (stereo not given) | – | 0.943
22 | CC(CCCC(C)(C)O)NCc1c(C(=O)N2CCCC2)nc2ccccn12 (stereo not given) | – | 0.988
23 | O=C(c1ccc(-c2ccco2)cc1)N1CCC2(CCCN(CC3CC3)C2)C1 (stereo not given) | – | 0.897
24 | CCOC(=O)C1(Cc2ccccc2C(F)(F)F)CCN(Cc2cccc(O)c2)CC1 | – | 0.652
25 | Cc1cc(OCc2cc(C(=O)N3CCN(CC4CC4)CC3)no2)cc(C)c1Cl | – | 0.601
26 | CCOc1ccc(CN2CCCC(CO)(Cc3ccccc3F)C2)cc1 (stereo not given) | 0.924 | –
27 | COc1cc(OC)c(OC)cc1CN1CC[C@@H](N2CCN(C)CC2)[C@H](O)C1 | 0.784 | –
28 | CC(C)Cc1nc2cc(NS(=O)(=O)N(C)C)cc(C(=O)NC3CCCCCC3)c2n1C | 0.775 | –
29 | C[C@@H]1CN(C(=O)c2nc3sccn3c2CNC2(c3ccccc3)CC2)C[C@H](C)O1 | 0.773 | –
30 | O=C(Cc1ccccn1)N1CCC(C2CCN(c3ncccn3)CC2)C1 (stereo not given) | 0.183 | –

A second format for part of the listing above:
O=C1O[C@@H]2CN(Cc3ccc(C#CCCO)cc3)C[C@@H]2N1C1CCCC1
  bacterial growth OD600 (polymyxin B 1 µg/mL): 0.888
C[C@@H]1CN(C(=O)c2nc3sccn3c2CNC2(c3ccccc3)CC2)C[C@H](C)O1
  bacterial growth OD600 (polymyxin B 0.75 µg/mL): 0.773
